Reference: patent publication US5498695A (Pfizer Inc., priority 1994, dated 1996)

Assay: general procedure: solution-phase peptide synthesis; DEC.HCl / N-hydroxysuccinimide
Details: late stage modification step

With PEPTIDE1{[ac].Y.V.A.D.[pNA]}$$$$V2.0 as the substance, how does the step yield read?
Its step yield is 87%.

Some peptides are written in HELM: one residue between dots, names in brackets for other building blocks, links after the first $.
